Data reported in patent US11072592B2, “Small molecules that enable cartilage rejuvenation” (The Regents of the University of California, priority 2015, dated 2021).
Some of these results come from one statement about several compounds together. For at least one compound, name, drawing or mass did not settle the structure.

Test system: fetal articular chondrocytes
Assay: Transwell migration assay, fetal articular chondrocytes
Type: cell-based, human
Conditions: 10 μM inhibitor

| Structure (SMILES) | decrease in motile cells |
| --- | --- |
| CCc1ccc(/C=C2/SC(=S)NC2=O)cc1 [10058-F4] | 2- to 4 fold |
| O=[N+]([O-])c1ccc2c(c1)S(=O)(=O)C=C2 [STATTIC] | 2- to 4 fold |
